The other results are listed elsewhere or left out.

Protein sequences, listed by entry. Tags and fused reporters are not part of them. Lines headed by an entry give the natural chain unless they say otherwise; changes in a name come on top.
UniProt Q8TBN0: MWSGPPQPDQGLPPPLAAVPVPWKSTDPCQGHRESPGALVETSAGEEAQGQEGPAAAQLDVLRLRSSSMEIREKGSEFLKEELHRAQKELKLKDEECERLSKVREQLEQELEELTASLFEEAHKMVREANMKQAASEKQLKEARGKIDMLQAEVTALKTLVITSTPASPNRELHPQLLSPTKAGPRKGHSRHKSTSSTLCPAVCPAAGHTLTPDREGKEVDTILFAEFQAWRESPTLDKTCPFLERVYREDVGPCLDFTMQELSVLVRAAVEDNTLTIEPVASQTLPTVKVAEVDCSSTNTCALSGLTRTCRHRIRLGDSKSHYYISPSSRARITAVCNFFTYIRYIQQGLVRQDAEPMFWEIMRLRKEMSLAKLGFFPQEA
UniProt Q92696: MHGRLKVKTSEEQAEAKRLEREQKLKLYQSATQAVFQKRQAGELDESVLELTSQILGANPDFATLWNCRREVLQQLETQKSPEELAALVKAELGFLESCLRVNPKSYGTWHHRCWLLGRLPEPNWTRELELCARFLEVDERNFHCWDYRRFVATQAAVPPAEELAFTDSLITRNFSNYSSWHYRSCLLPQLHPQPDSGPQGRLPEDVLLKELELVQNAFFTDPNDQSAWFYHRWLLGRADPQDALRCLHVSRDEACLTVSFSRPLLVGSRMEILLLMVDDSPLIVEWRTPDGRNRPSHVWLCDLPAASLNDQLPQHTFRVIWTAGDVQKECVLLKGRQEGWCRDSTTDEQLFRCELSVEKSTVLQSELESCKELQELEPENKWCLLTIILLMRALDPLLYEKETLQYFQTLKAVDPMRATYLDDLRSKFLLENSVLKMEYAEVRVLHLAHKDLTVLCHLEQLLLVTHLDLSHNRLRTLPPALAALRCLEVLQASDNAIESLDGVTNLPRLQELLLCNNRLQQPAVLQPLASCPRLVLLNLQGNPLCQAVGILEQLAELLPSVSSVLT
UniProt P49756, whole entry, looked up: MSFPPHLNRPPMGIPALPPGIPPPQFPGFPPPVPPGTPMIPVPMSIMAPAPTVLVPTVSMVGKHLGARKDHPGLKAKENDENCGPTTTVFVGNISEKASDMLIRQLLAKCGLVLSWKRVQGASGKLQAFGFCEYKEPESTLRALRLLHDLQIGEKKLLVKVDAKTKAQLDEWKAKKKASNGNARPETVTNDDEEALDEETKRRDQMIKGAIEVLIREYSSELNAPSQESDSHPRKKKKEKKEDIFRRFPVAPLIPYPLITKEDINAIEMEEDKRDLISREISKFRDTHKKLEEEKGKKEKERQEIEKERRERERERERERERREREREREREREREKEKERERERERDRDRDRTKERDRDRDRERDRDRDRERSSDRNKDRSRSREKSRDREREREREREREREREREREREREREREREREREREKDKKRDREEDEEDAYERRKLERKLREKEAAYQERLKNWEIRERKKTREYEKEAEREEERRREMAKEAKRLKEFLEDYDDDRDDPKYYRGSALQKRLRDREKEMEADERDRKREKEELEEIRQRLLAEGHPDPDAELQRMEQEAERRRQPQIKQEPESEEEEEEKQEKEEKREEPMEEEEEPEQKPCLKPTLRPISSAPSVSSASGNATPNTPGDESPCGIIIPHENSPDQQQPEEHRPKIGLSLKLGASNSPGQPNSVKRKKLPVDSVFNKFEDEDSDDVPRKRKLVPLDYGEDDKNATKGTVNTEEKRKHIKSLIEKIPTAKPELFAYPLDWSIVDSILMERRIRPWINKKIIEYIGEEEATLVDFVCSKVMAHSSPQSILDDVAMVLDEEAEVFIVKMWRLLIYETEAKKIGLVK
UniProt Q96D70: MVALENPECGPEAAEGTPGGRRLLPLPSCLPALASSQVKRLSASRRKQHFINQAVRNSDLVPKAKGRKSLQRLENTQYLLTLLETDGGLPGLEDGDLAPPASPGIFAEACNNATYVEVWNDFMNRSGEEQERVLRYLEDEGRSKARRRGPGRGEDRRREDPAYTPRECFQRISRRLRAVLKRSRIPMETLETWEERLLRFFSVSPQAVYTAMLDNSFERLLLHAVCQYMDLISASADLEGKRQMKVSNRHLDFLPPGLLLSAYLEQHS
UniProt Q9NW13: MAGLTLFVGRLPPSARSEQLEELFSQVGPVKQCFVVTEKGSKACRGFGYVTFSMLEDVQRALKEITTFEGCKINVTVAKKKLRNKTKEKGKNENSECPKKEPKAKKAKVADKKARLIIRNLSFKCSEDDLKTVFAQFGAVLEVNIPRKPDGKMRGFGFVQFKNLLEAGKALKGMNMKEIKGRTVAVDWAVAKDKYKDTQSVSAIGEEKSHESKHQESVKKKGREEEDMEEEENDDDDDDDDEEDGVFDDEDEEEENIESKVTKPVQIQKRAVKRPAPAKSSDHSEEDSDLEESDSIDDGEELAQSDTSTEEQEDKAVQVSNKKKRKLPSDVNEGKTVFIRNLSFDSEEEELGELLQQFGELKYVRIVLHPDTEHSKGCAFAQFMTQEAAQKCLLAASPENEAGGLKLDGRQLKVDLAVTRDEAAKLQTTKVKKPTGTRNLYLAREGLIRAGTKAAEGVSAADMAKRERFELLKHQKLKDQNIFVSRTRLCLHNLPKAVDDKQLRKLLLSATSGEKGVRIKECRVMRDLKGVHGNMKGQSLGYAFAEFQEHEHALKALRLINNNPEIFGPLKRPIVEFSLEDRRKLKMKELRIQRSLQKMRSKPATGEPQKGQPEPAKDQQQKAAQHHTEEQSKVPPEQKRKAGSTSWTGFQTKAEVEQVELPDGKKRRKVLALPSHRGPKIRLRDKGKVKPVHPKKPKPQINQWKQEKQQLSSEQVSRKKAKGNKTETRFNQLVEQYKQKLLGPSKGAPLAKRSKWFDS
UniProt Q9H082: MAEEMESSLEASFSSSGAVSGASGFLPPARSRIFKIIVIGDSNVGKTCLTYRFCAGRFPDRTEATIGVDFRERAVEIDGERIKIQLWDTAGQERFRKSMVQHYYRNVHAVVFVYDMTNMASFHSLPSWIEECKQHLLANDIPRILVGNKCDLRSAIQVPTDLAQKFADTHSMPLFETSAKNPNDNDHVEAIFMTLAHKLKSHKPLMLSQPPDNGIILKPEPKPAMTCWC
UniProt P54136: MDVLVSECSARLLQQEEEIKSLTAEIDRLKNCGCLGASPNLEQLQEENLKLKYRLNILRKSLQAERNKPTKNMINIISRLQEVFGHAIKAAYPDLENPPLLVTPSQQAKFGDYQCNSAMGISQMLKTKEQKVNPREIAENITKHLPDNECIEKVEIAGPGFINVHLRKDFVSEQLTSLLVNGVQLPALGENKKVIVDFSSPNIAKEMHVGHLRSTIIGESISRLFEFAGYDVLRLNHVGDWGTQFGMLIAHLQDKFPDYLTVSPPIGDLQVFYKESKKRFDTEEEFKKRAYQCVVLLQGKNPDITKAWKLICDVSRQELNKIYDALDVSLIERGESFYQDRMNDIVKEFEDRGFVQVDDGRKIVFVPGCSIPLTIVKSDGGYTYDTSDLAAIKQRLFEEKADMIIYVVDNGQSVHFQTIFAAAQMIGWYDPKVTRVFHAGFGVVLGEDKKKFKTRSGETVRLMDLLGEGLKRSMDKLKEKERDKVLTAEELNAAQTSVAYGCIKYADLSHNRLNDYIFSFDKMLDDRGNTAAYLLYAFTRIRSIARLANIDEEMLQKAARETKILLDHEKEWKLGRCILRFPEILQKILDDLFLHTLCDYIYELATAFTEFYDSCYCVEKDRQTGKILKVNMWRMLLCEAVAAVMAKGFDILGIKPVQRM
UniProt Q5T8P6: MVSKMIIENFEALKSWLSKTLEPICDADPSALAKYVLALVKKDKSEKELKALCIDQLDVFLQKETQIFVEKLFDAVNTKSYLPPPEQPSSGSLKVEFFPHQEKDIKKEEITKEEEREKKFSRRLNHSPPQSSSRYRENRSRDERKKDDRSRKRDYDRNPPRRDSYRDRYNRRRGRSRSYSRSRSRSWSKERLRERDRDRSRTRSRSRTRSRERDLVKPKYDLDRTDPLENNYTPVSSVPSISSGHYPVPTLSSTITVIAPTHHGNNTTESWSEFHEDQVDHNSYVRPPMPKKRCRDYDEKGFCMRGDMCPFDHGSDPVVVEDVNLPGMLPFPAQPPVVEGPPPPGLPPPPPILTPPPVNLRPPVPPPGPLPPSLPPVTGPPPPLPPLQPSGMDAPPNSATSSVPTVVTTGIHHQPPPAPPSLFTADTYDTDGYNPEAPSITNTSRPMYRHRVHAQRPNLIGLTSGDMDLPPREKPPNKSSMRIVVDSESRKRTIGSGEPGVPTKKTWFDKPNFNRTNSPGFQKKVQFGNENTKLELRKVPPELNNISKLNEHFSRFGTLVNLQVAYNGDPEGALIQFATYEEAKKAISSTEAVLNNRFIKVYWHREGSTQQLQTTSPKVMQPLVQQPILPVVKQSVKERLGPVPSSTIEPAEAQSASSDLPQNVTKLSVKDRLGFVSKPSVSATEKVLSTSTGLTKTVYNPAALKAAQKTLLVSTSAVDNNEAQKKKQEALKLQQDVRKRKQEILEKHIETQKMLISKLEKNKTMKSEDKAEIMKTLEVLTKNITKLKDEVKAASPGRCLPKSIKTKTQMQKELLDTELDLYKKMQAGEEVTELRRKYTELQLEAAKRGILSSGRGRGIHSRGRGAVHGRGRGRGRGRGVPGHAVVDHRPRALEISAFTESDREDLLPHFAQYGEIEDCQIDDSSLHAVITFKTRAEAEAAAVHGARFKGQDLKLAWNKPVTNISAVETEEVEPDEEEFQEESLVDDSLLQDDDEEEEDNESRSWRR
UniProt O15315: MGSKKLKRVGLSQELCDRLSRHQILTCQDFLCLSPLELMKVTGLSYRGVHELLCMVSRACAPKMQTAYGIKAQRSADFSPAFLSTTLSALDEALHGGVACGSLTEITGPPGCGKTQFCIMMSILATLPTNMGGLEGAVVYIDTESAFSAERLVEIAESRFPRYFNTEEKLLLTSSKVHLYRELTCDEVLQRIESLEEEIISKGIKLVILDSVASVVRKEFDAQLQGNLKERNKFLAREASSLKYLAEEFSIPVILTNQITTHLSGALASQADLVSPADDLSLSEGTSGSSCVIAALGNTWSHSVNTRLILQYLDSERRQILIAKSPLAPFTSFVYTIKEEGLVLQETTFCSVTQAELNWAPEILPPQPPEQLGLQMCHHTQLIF
UniProt Q9BUV8: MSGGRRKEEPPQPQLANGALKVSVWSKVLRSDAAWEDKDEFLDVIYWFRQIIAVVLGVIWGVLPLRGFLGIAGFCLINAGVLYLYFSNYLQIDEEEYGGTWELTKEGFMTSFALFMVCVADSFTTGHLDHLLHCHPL
UniProt Q92930: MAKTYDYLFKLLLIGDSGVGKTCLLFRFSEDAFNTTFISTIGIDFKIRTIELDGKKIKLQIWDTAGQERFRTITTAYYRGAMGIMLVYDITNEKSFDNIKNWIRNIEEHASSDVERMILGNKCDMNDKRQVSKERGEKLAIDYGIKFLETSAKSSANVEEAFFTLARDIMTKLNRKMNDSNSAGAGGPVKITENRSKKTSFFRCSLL
UniProt P11233: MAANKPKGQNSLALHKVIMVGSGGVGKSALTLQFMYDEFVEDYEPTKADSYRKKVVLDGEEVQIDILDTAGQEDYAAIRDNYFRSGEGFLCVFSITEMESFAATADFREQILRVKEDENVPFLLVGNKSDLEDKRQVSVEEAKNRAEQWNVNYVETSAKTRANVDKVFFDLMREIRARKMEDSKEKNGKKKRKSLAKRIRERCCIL

Among the data in the supplement of paper PMC10849652 are log2 fold change values, retold here.

Compound in this test: CC(=O)c1cnc2ccc(-c3cc(Cl)c(O)c(Cl)c3)nc2c1N[C@H]1CC[C@H](CN(C)C)CC1
The test is described as follows: log2 fold change, soluble protein after heating vs DMSO (PISA); higher = thermal stabilisation; K562 cells, 10 uM, 30 min; active = over 0.2 and 3.5 SD of the protein, either way, in both replicates (recomputed). The essentials: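 K562 cells at 2×10^6 cells/mL were given 10 μM compound for 30 min. Aliquots then went through 3 min of heating across 48°C-58°C, were pooled, and were extracted in PBS with 0.5% NP-40 at 4°C, and the supernatant after 21,000xg for 90 min was quantified by TMTpro 16plex LC-MS/MS with channel sums equalised. Thermal stability relative to control samples, from duplicates, is given as log2 fold change.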
RAB3IL1 (UniProt Q8TBN0): the log2 fold change is inactive: 0.018.

In the case of RAP2C (UniProt Q9Y3L5), the log2 fold change was inactive: -0.032.

Regarding RABGAP1L isoform 3 (UniProt Q5R372), the log2 fold change was inactive: 0.011.

RABGGTA (UniProt Q92696): the log2 fold change is inactive: -0.02.

Consider RAD50 isoform 2 (UniProt Q92878), for which the log2 fold change is inactive: -0.099.

Consider RAP1B (UniProt F5GZG1), for which the log2 fold change was inactive: -0.157.

For RBM25 (UniProt P49756), the log2 fold change was inactive: -0.032.

Regarding RBBP7 (UniProt Q16576), the log2 fold change was inactive: 0.015.

As to R3HDM4 (UniProt Q96D70), the log2 fold change was inactive: 0.126.

In the case of RBM33 (UniProt Q96EV2), the log2 fold change was inactive: -0.063.

RBM28 (UniProt Q9NW13): the log2 fold change is inactive: -0.123.

As for RBBP5 isoform 2 (UniProt Q15291), the log2 fold change was inactive: 0.138.

On to RAB33B (UniProt Q9H082), for which the log2 fold change was inactive: -0.019.

As to RARS (UniProt P54136), the log2 fold change is inactive: 0.12.

Turning to RBM26 isoform 2 (UniProt Q5T8P6), the log2 fold change was inactive: -0.179.

As to RAD51B (UniProt O15315), the log2 fold change is inactive: 0.036.

As for RAB5IF isoform 5 (UniProt Q9BUV8), the log2 fold change is inactive: 0.048.

On to RAB8B (UniProt Q92930), for which the log2 fold change was inactive: 0.

For the target RACK1 (UniProt D6RHH4), the log2 fold change is inactive: -0.122.

RALA (UniProt P11233): the log2 fold change was inactive: 0.018.

For the target RAB3IL1 (UniProt E9PK89), the log2 fold change is inactive: -0.006.

For the target RABGAP1L isoform 5 (UniProt Q5R372), the log2 fold change was inactive: -0.025.
